Experimental data reported in the supplement of paper PMC8728848.
The other results are listed elsewhere or left out.

What was measured:
Experiment in all cases: glycan array binding signal (z-score within array); higher = stronger binding
Details in all cases: glycan notation: IUPAC condensed, linker removed
[1] = biological target: GlcNAc(b1-2)[GlcNAc(b1-4)]Man(a1-3)[GlcNAc(b1-4)][GlcNAc(b1-2)[GlcNAc(b1-6)]Man(a1-6)]Man(b1-4)GlcNAc(b1-4)GlcNAc
Outline: (§1)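 The binding signal is a Z-score computed within each array. Data were drawn from 3228 arrays in the Consortium for Functional Glycomics database, restricted to those with a known protein sequence. Scores were averaged over arrays of the same protein sequence at different concentrations or buffers, and over linkers, and negative values can be taken as non-binding.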

[2] = biological target: GlcNAc(b1-2)[GlcNAc(b1-4)]Man(a1-3)[GlcNAc(b1-4)][GlcNAc(b1-2)[GlcNAc(b1-6)]Man(a1-6)]Man(b1-4)GlcNAc(b1-4)[Fuc(a1-6)]GlcNAc
Outline: as §1

[3] = biological target: GlcNAc(b1-2)[GlcNAc(b1-6)]Man(a1-6)[GlcNAc(b1-2)Man(a1-3)]Man(b1-4)GlcNAc(b1-4)GlcNAc
Outline: as §1

[4] = biological target: GlcNAc(b1-2)[GlcNAc(b1-6)]Man(a1-6)[GlcNAc(b1-2)Man(a1-3)]Man(b1-4)GlcNAc(b1-4)[Fuc(a1-6)]GlcNAc
Outline: as §1

[5] = biological target: GlcNAc(b1-2)[GlcNAc(b1-6)]Man(a1-6)[GlcNAc(b1-4)][GlcNAc(b1-2)Man(a1-3)]Man(b1-4)GlcNAc(b1-4)GlcNAc
Outline: as §1

[6] = biological target: GlcNAc(b1-3)Fuc
Outline: as §1

[7] = biological target: GlcNAc(b1-3)Gal
Outline: as §1

[8] = biological target: GlcNAc(b1-3)Gal(b1-3)GalNAc
Outline: as §1

[9] = biological target: GlcNAc(b1-3)Gal(b1-4)Glc
Outline: as §1

[10] = biological target: GlcNAc(b1-3)Gal(b1-4)GlcNAc
Outline: as §1

[11] = biological target: GlcNAc(b1-3)Gal(b1-4)GlcNAc(b1-2)Man(a1-3)[GlcNAc(b1-3)Gal(b1-4)GlcNAc(b1-2)Man(a1-6)]Man(b1-4)GlcNAc(b1-4)GlcNAc
Outline: as §1

[12] = biological target: GlcNAc(b1-3)Gal(b1-4)GlcNAc(b1-2)Man(a1-3)[GlcNAc(b1-3)Gal(b1-4)GlcNAc(b1-2)Man(a1-6)]Man(b1-4)GlcNAc(b1-4)[Fuc(a1-6)]GlcNAc
Outline: as §1

[13] = biological target: GlcNAc(b1-3)Gal(b1-4)GlcNAc(b1-2)[GlcNAc(b1-3)Gal(b1-4)GlcNAc(b1-6)]Man(a1-6)[GlcNAc(b1-3)Gal(b1-4)GlcNAc(b1-2)Man(a1-3)]Man(b1-4)GlcNAc(b1-4)GlcNAc
Outline: as §1

[14] = biological target: GlcNAc(b1-3)Gal(b1-4)GlcNAc(b1-3)Gal(b1-4)GlcNAc
Outline: as §1

[15] = biological target: GlcNAc(b1-3)Gal(b1-4)GlcNAc(b1-3)Gal(b1-4)GlcNAc(b1-2)Man(a1-3)[GlcNAc(b1-3)Gal(b1-4)GlcNAc(b1-3)Gal(b1-4)GlcNAc(b1-2)Man(a1-6)]Man(b1-4)GlcNAc(b1-4)GlcNAc
Outline: as §1

[16] = biological target: GlcNAc(b1-3)Gal(b1-4)GlcNAc(b1-3)Gal(b1-4)GlcNAc(b1-2)Man(a1-3)[GlcNAc(b1-3)Gal(b1-4)GlcNAc(b1-3)Gal(b1-4)GlcNAc(b1-2)Man(a1-6)]Man(b1-4)GlcNAc(b1-4)[Fuc(a1-6)]GlcNAc
Outline: as §1

[17] = biological target: GlcNAc(b1-3)Gal(b1-4)GlcNAc(b1-3)Gal(b1-4)GlcNAc(b1-2)[GlcNAc(b1-3)Gal(b1-4)GlcNAc(b1-3)Gal(b1-4)GlcNAc(b1-6)]Man(a1-6)[GlcNAc(b1-3)Gal(b1-4)GlcNAc(b1-3)Gal(b1-4)GlcNAc(b1-2)Man(a1-3)]Man(b1-4)GlcNAc(b1-4)[Fuc(a1-6)]GlcNAc
Outline: as §1

[18] = biological target: GlcNAc(b1-3)Gal(b1-4)GlcNAc(b1-3)Gal(b1-4)GlcNAc(b1-3)Gal(b1-4)GlcNAc(b1-2)Man(a1-3)[GlcNAc(b1-3)Gal(b1-4)GlcNAc(b1-3)Gal(b1-4)GlcNAc(b1-3)Gal(b1-4)GlcNAc(b1-2)Man(a1-6)]Man(b1-4)GlcNAc(b1-4)GlcNAc
Outline: as §1

[19] = biological target: GlcNAc(b1-3)Gal(b1-4)GlcNAc(b1-3)Gal(b1-4)GlcNAc(b1-3)Gal(b1-4)GlcNAc(b1-2)Man(a1-3)[GlcNAc(b1-3)Gal(b1-4)GlcNAc(b1-3)Gal(b1-4)GlcNAc(b1-3)Gal(b1-4)GlcNAc(b1-2)Man(a1-6)]Man(b1-4)GlcNAc(b1-4)[Fuc(a1-6)]GlcNAc
Outline: as §1

[20] = biological target: GlcNAc(b1-3)Gal(b1-4)GlcNAc(b1-3)Gal(b1-4)GlcNAc(b1-3)Gal(b1-4)GlcNAc(b1-2)[GlcNAc(b1-3)Gal(b1-4)GlcNAc(b1-3)Gal(b1-4)GlcNAc(b1-3)Gal(b1-4)GlcNAc(b1-6)]Man(a1-6)[GlcNAc(b1-3)Gal(b1-4)GlcNAc(b1-3)Gal(b1-4)GlcNAc(b1-3)Gal(b1-4)GlcNAc(b1-2)Man(a1-3)]Man(b1-4)GlcNAc(b1-4)[Fuc(a1-6)]GlcNAc
Outline: as §1

[21] = biological target: GlcNAc(b1-3)Gal(b1-4)GlcNAc(b1-3)Gal(b1-4)GlcNAc(b1-3)Gal(b1-4)GlcNAc(b1-3)Gal(b1-4)GlcNAc(b1-2)Man(a1-3)[GlcNAc(b1-3)Gal(b1-4)GlcNAc(b1-3)Gal(b1-4)GlcNAc(b1-3)Gal(b1-4)GlcNAc(b1-3)Gal(b1-4)GlcNAc(b1-2)Man(a1-6)]Man(b1-4)GlcNAc(b1-4)GlcNAc
Outline: as §1

[22] = biological target: GlcNAc(b1-3)Gal(b1-4)GlcNAc(b1-3)Gal(b1-4)GlcNAc(b1-3)Gal(b1-4)GlcNAc(b1-3)Gal(b1-4)GlcNAc(b1-2)Man(a1-3)[GlcNAc(b1-3)Gal(b1-4)GlcNAc(b1-3)Gal(b1-4)GlcNAc(b1-3)Gal(b1-4)GlcNAc(b1-3)Gal(b1-4)GlcNAc(b1-2)Man(a1-6)]Man(b1-4)GlcNAc(b1-4)[Fuc(a1-6)]GlcNAc
Outline: as §1

[23] = biological target: GlcNAc(b1-3)Gal(b1-4)GlcNAc(b1-3)Gal(b1-4)GlcNAc(b1-3)Gal(b1-4)GlcNAc(b1-3)Gal(b1-4)GlcNAc(b1-2)[GlcNAc(b1-3)Gal(b1-4)GlcNAc(b1-3)Gal(b1-4)GlcNAc(b1-3)Gal(b1-4)GlcNAc(b1-3)Gal(b1-4)GlcNAc(b1-6)]Man(a1-6)[GlcNAc(b1-3)Gal(b1-4)GlcNAc(b1-3)Gal(b1-4)GlcNAc(b1-3)Gal(b1-4)GlcNAc(b1-3)Gal(b1-4)GlcNAc(b1-2)Man(a1-3)]Man(b1-4)GlcNAc(b1-4)[Fuc(a1-6)]GlcNAc
Outline: as §1

[24] = biological target: GlcNAc(b1-3)Gal(b1-4)GlcNAc(b1-3)Gal(b1-4)GlcNAc(b1-3)GalNAc
Outline: as §1

[25] = biological target: GlcNAc(b1-3)Gal(b1-4)GlcNAc(b1-3)GalNAc
Outline: as §1

[26] = biological target: GlcNAc(b1-3)Gal(b1-4)GlcNAc(b1-3)[GlcNAc(b1-3)Gal(b1-4)GlcNAc(b1-3)]GalNAc
Outline: as §1

[27] = biological target: GlcNAc(b1-3)Gal(b1-4)GlcNAc(b1-6)[Gal(b1-3)]GalNAc
Outline: as §1

[28] = biological target: GlcNAc(b1-3)Gal(b1-4)GlcNAc(b1-6)[GlcNAc(b1-3)Gal(b1-3)]GalNAc
Outline: as §1

[29] = biological target: GlcNAc(b1-3)Gal(b1-4)GlcNAc(b1-6)[GlcNAc(b1-3)]Gal(b1-4)GlcNAc
Outline: as §1

[30] = biological target: GlcNAc(b1-3)GalNAc
Outline: as §1

[31] = biological target: GlcNAc(b1-3)Man
Outline: as §1

[32] = biological target: GlcNAc(b1-3)[GlcNAc(b1-4)][GlcNAc(b1-6)]GlcNAc
Outline: as §1

[33] = biological target: GlcNAc(b1-3)[GlcNAc(b1-6)]Gal(b1-4)GlcNAc
Outline: as §1

[34] = biological target: GlcNAc(b1-3)[GlcNAc(b1-6)]GalNAc
Outline: as §1

[35] = biological target: GlcNAc(b1-4)Gal(b1-4)GlcNAc
Outline: as §1

[36] = biological target: GlcNAc(b1-4)GlcNAc
Outline: as §1

[37] = biological target: GlcNAc(b1-4)GlcNAc(b1-4)GlcNAc
Outline: as §1

[38] = biological target: GlcNAc(b1-4)GlcNAc(b1-4)GlcNAc(b1-4)GlcNAc(b1-4)GlcNAc
Outline: as §1

B1: SJCP1084 (Schistosoma japonicum) (protein)
chain: MRIINLVIISTALLLINLLQTKSQANGEDTKNGTPDDPGLTKSTELKVEVQALLKDKKTNMRVKWNENLLDNTKPEYHNLRDEACELLLQIVRSVVPLSQDDGECKDVTFTKYVVGTKDGAVNVKLTITFKDSVAINQKPMDLKLKLENDFKNLQSESTLKATKPTFTVKVEKRLIPISKPQTTPPTTAKNDASKENVGDIGGEDSTVPTAAPATAASANEEKDEGDKDNKDSQHPNVLTSNVNDRNLIIALVALMILAIGVALTAAVKQR
glycan array binding signal (z-score) [1]: -1.41
glycan array binding signal (z-score) [2]: -0.318
glycan array binding signal (z-score) [3]: 0.15
glycan array binding signal (z-score) [4]: 0.755
glycan array binding signal (z-score) [5]: 0.364
glycan array binding signal (z-score) [6]: -0.021
glycan array binding signal (z-score) [7]: -1.39
glycan array binding signal (z-score) [8]: -0.001
glycan array binding signal (z-score) [9]: -0.447
glycan array binding signal (z-score) [10]: 0.123
glycan array binding signal (z-score) [11]: -0.62
glycan array binding signal (z-score) [12]: 1.02
glycan array binding signal (z-score) [13]: -0.639
glycan array binding signal (z-score) [14]: -0.425
glycan array binding signal (z-score) [15]: 1.03
glycan array binding signal (z-score) [16]: -0.088
glycan array binding signal (z-score) [17]: -0.27
glycan array binding signal (z-score) [18]: 1.28
glycan array binding signal (z-score) [19]: 1.66
glycan array binding signal (z-score) [20]: 0.279
glycan array binding signal (z-score) [21]: 0.058
glycan array binding signal (z-score) [22]: -0.466
glycan array binding signal (z-score) [23]: 2.68
glycan array binding signal (z-score) [24]: 0.016
glycan array binding signal (z-score) [25]: -0.886
glycan array binding signal (z-score) [26]: 0.184
glycan array binding signal (z-score) [27]: -1.25
glycan array binding signal (z-score) [28]: -0.738
glycan array binding signal (z-score) [29]: -0.686
glycan array binding signal (z-score) [30]: -0.411
glycan array binding signal (z-score) [31]: 0.248
glycan array binding signal (z-score) [32]: -0.927
glycan array binding signal (z-score) [33]: 1.12
glycan array binding signal (z-score) [34]: 0.049
glycan array binding signal (z-score) [35]: -0.577
glycan array binding signal (z-score) [36]: 0.004
glycan array binding signal (z-score) [37]: -1.45
glycan array binding signal (z-score) [38]: -0.993
